Reference: PubChem BioAssay AID1259424 (University of Nebraska Medical Center, 2018)
This is an unselected part of about 14,000 deposited reagents. 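Higher correlation or smaller distance means closer resemblance to KSR1 loss; control wells, including KSR1 knockdowns, recur on many plates.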 Not all columns of the deposit are shown. Not given: the time to read-out.

- Purpose: 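Seek colon cancer survival genes behaving like KSR1, using a six-gene signature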 (primary screen)
- Cells: human HCT116 colon cancer cells
- Reagents: siRNA pool against human genes, 50 nM
- Measured: 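Log2 levels of six mRNAs (branched-DNA multiplex), adjusted by two reference genes and the non-targeting median, then scored against the average KSR1 knockdown pattern as Pearson r and euclidean distance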
- Direction: mean correlation with KSR1 profile: higher = expression change more like KSR1 knockdown

| Target gene | mean correlation with KSR1 profile |
| --- | --- |
| CDH9 (cadherin 9) | 0.218 |
| ZNF85 (zinc finger protein 85) | -0.473 |
| NEUROD1 (neuronal differentiation 1) | 0.589 |
| RAB40B (RAB40B, member RAS oncogene family) | 0.901 |
| GPR65 (G protein-coupled receptor 65) | 0.724 |
| WASHC2A (WASH complex subunit 2A) | 0.628 |
| GATAD2A (GATA zinc finger domain containing 2A) | -0.675 |
| TMPRSS3 (transmembrane serine protease 3) | 0.0666 |
| PHF20L1 (PHD finger protein 20 like 1) | 0.258 |
| EPCAM (epithelial cell adhesion molecule) | -0.496 |
| FJX1 (four-jointed box kinase 1) | 0.37 |
| IGSF21 (immunoglobin superfamily member 21) | 0.395 |
| RPGR (retinitis pigmentosa GTPase regulator) | 0.707 |
| HSF2BP (heat shock transcription factor 2 binding protein) | -0.318 |
| HAUS2 (HAUS augmin like complex subunit 2) | -0.599 |
| PDE6B (phosphodiesterase 6B) | -0.604 |
| TMEM39B (transmembrane protein 39B) | 0.216 |
| ETAA1 (ETAA1 activator of ATR kinase) | -0.175 |
| EDIL3 (EGF like and discoidin domains 3) | -0.37 |
| TTK (TTK protein kinase) | -0.185 |

Targets above whose target name begins with E or e (3):
| Target gene | mean correlation with KSR1 profile |
| --- | --- |
| EPCAM (epithelial cell adhesion molecule) | -0.496 |
| ETAA1 (ETAA1 activator of ATR kinase) | -0.175 |
| EDIL3 (EGF like and discoidin domains 3) | -0.37 |
